{"source": "patent US11034742B2", "about": "“Peptides with antibiotic potential against Mycobacterium tuberculosis” (LINNANE PHARMA AB, priority 2017, dated 2021)", "origin": "cited, not measured here", "system": "M. tuberculosis", "conditions": "Table 1; from Schon et al. 2009; cited from earlier work", "note": "For at least one compound, name, drawing or mass did not settle the structure. Marks after values point to notes of the source that are not given here.", "data": [{"smiles": "CO[C@H]1/C=C/O[C@@]2(C)Oc3c(C)c(O)c4c(O)c(c(/C=N/N5CCN(C)CC5)c(O)c4c3C2=O)NC(=O)/C(C)=C\\C=C\\[C@H](C)[C@H](O)[C@@H](C)[C@@H](O)[C@@H](C)[C@H](OC(C)=O)[C@@H]1C", "note": "[Rifampicin]", "values": [{"measurement": "MIC (mg/L)", "value": "1.0* mg/L"}, {"measurement": "MIC (μM)", "value": "1.2* μM"}]}]}
